# Data source: PubChem BioAssay AID493246 (Drosophila RNAi Screening Center, 2011)
# Purpose: 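Genes fly cells need to grow and stay alive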 (primary screen)
# Cells: Drosophila Kc and S2R+ cells
# Reagents: long dsRNA against Drosophila genes
# Read-out: 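Cell number per well after knock-down, printed as raw plate values; calls were based on per-plate z-scores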
# Direction: Kc cell number and S2R+ cell number: higher = more cells remaining
# Hit rule: 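Counted as a hit if cell number falls by a z-score of at least 3 within its plate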
# The screen tested about 21,000 reagents; this is an unselected part of those with a known target gene and a result. Of all reagents, 429 (2%) were called active. 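Values are raw and not normalised between plates; calls rest on per-plate z-scores that were not deposited.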 Unmarked entries are inactive. A plus sign joins genes that one reagent is predicted to hit. The record does not give: the amount of reagent, the time to read-out.
"Kc cell number, rep 1","Kc cell number, rep 2","S2R+ cell number, rep 1","S2R+ cell number, rep 2",target,dsRNA
1.67e6,1.73e6,1.21e6,1.37e6,MED10 (GeneID 39777),DRSC10474
1.43e6,1.49e6,1.12e6,1.11e6,CG30089 (GeneID 36736),DRSC06126
4.15e5 (active),9.01e5,5.31e5,6.11e5,CG30089 (GeneID 36736),DRSC06127
1.69e6,2.00e6,1.58e6,1.72e6,CG30089 (GeneID 36736),DRSC06267
1.22e6,1.32e6,1.31e6,1.45e6,CG34428 (GeneID 5740867),DRSC10119
1.75e6,1.80e6,1.25e6,1.43e6,cutlet (GeneID 44637),DRSC00284
1.54e6,1.53e6,1.17e6,1.23e6,CG14445 (GeneID 31556),DRSC17938
1.51e6,1.61e6,1.11e6,1.14e6,CG31019 (GeneID 318558),DRSC13994
1.51e6,1.19e6,1.12e6,1.23e6,CG14007 (GeneID 33799),DRSC02339
1.31e6,1.40e6,1.07e6,1.21e6,CG3335 (GeneID 39119),DRSC10358
1.27e6,1.35e6,1.09e6,1.07e6,Galphai (GeneID 38765),DRSC11168
1.50e6,1.64e6,9.79e5,1.08e6,eater (GeneID 43262),DRSC15969
1.47e6,1.51e6,1.00e6,1.10e6,CheA46a (GeneID 3772338),DRSC05184
1.49e6,1.43e6,9.36e5,1.01e6,CG43736 + CG33692 (retired record),DRSC18370
1.66e6,1.64e6,1.09e6,1.21e6,CG43736 + CG33692 (retired record),DRSC18371
1.59e6,1.65e6,1.07e6,1.18e6,VhaAC39-2 (GeneID 42739),DRSC15609
1.53e6,1.66e6,1.30e6,1.45e6,Ir84a (GeneID 40891),DRSC12510
1.60e6,1.56e6,1.17e6,1.30e6,Drgx (GeneID 5740176),DRSC00278
1.62e6,1.41e6,1.13e6,1.28e6,Drgx (GeneID 5740176),DRSC00537
1.51e6,1.71e6,1.30e6,3.81e5,Dpm1 (GeneID 35240),DRSC02018
1.46e6,1.34e6,1.15e6,1.27e6,Spn27A (GeneID 45815),DRSC03608
1.52e6,1.41e6,1.11e6,1.24e6,GluRIIA (GeneID 33788),DRSC03334
1.89e6,1.95e6,1.19e6,1.42e6,strat (GeneID 34142),DRSC03069
1.50e6,1.39e6,1.12e6,1.21e6,CG13771 (GeneID 33933),DRSC02277
1.76e6,1.67e6,1.11e6,1.48e6,Gr64b (GeneID 117480),DRSC08444
1.02e6,1.17e6,7.36e5,8.04e5,hry (GeneID 38995),DRSC11353
1.53e6,1.52e6,1.10e6,1.20e6,CG4660 (GeneID 31542),DRSC18378
1.39e6,1.37e6,1.24e6,1.34e6,CG15715 (GeneID 39726),DRSC10216
1.53e6,1.55e6,1.26e6,1.37e6,CG12842 (retired record) (GeneID 35619),DRSC06188
1.25e6,1.33e6,1.08e6,1.14e6,CG2201 (GeneID 35417),DRSC03721
4.93e5,,6.55e5,,Fer1HCH (GeneID 46415),DRSC16671
1.56e6,1.72e6,1.27e6,4.51e5,Alp2 (GeneID 37539),DRSC04354
1.53e6,1.52e6,1.07e6,1.17e6,AnxB10 (GeneID 33019),DRSC20677
1.85e6,1.85e6,1.28e6,1.53e6,Ir52b (GeneID 246631),DRSC06263
1.31e6,1.39e6,1.14e6,1.16e6,Got1 (GeneID 36782),DRSC07177
1.61e6,1.75e6,1.11e6,1.18e6,IFT52 (GeneID 33917),DRSC03271
1.49e6,1.38e6,9.10e5,1.02e6,fd96Ca (GeneID 43010),DRSC16946
1.63e6,1.72e6,1.07e6,1.24e6,CG12057 (GeneID 31854),DRSC17797
1.75e6,1.81e6,1.38e6,1.49e6,CG32054 (GeneID 326185),DRSC10684
1.31e6,1.37e6,1.09e6,1.24e6,chico (GeneID 64880),DRSC03531
1.45e6,1.42e6,1.00e6,1.07e6,sob (GeneID 33581),DRSC00838
1.45e6,1.55e6,9.26e5,1.10e6,CG31810 (GeneID 318955),DRSC01560
1.66e6,1.70e6,1.33e6,1.51e6,Ance-3 (GeneID 34808),DRSC02648
1.56e6,1.67e6,1.23e6,1.42e6,Ance-3 (GeneID 34808),DRSC02649
1.52e6,1.34e6,1.14e6,1.23e6,Tsp66A + CG42661 + CG42660,DRSC10233
1.56e6,1.66e6,9.36e5,1.06e6,Nle (GeneID 33234),DRSC00763
1.27e6,1.27e6,8.98e5,7.69e5,Vajk4 (GeneID 36950),DRSC06589
1.52e6,1.62e6,1.18e6,1.30e6,Vajk4 (GeneID 36950),DRSC07003
1.54e6,1.64e6,1.26e6,1.40e6,Spn77Bb + Spn77Bc,DRSC10689
1.46e6,1.49e6,1.29e6,1.43e6,Spn77Bb + Spn77Bc,DRSC11793
1.46e6,1.49e6,1.18e6,1.29e6,ttv (GeneID 36614),DRSC07709
1.64e6,1.64e6,1.27e6,1.42e6,LS2 (GeneID 37681),DRSC04340
1.22e6,1.30e6,1.12e6,1.24e6,ninaB (GeneID 41678),DRSC16807
1.49e6,1.30e6,1.11e6,1.19e6,Lcp65Ab2 + Lcp65Ab1,DRSC10340
1.32e6,1.40e6,1.08e6,1.19e6,Lcp65Ab2 + Lcp65Ab1,DRSC10343
1.48e6,1.55e6,1.28e6,1.42e6,Ance-2 (GeneID 34806),DRSC02539
1.46e6,1.51e6,1.23e6,1.26e6,Suv3 (GeneID 40543),DRSC12335
1.59e6,1.73e6,1.26e6,1.45e6,CG31741 (GeneID 35079),DRSC02887
1.53e6,1.58e6,1.24e6,1.38e6,CG12620 (GeneID 35034),DRSC02177
